# This is one part of the list.
# What was measured:
# Assay in all cases: glycan array binding signal (z-score within array); higher = stronger binding
# Settings in all cases: glycan notation: IUPAC condensed, linker removed
# [1] = molecular target: Neu5Ac(a2-3)Gal(b1-4)GlcNAc(b1-6)[Gal(b1-3)]GalNAc
# How it was run: (§1)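 The binding signal is a Z-score computed within each array and averaged over linkers. Arrays of the same protein sequence at different concentrations or buffers were also averaged together. Data originate from 3228 arrays in the Consortium for Functional Glycomics database, kept only where the protein sequence was available.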
# [2] = molecular target: Neu5Ac(a2-3)Gal(b1-4)GlcNAc(b1-6)[Neu5Ac(a2-3)Gal(b1-3)]GalNAc
# How it was run: as §1
# [3] = molecular target: Neu5Ac(a2-3)Gal(b1-4)GlcNAc6S
# How it was run: as §1
# [4] = molecular target: Neu5Ac(a2-3)Gal(b1-4)[Fuc(a1-3)]GlcNAc
# How it was run: as §1
# [5] = molecular target: Neu5Ac(a2-3)Gal(b1-4)[Fuc(a1-3)]GlcNAc(b1-2)Man
# How it was run: as §1
# [6] = molecular target: Neu5Ac(a2-3)Gal(b1-4)[Fuc(a1-3)]GlcNAc(b1-3)Gal
# How it was run: as §1
# [7] = molecular target: Neu5Ac(a2-3)Gal(b1-4)[Fuc(a1-3)]GlcNAc(b1-3)Gal(b1-4)GlcNAc
# How it was run: as §1
# [8] = molecular target: Neu5Ac(a2-3)Gal(b1-4)[Fuc(a1-3)]GlcNAc(b1-3)Gal(b1-4)[Fuc(a1-3)]GlcNAc(b1-3)Gal(b1-4)[Fuc(a1-3)]GlcNAc
# How it was run: as §1
# [9] = molecular target: Neu5Ac(a2-3)Gal(b1-4)[Fuc(a1-3)]GlcNAc(b1-3)GalNAc
# How it was run: as §1
# [10] = molecular target: Neu5Ac(a2-3)Gal(b1-4)[Fuc(a1-3)]GlcNAc(b1-6)[Gal(b1-3)]GalNAc
# How it was run: as §1
# [11] = molecular target: Neu5Ac(a2-3)Gal(b1-4)[Fuc(a1-3)]GlcNAc(b1-6)[Neu5Ac(a2-3)Gal(b1-3)]GalNAc
# How it was run: as §1
# [12] = molecular target: Neu5Ac(a2-3)Gal(b1-4)[Fuc(a1-3)]GlcNAc6S
# How it was run: as §1
# [13] = molecular target: Neu5Ac(a2-3)Gal6S(b1-4)GlcNAc
# How it was run: as §1
# [14] = molecular target: Neu5Ac(a2-3)Gal6S(b1-4)[Fuc(a1-3)]GlcNAc
# How it was run: as §1
# [15] = molecular target: Neu5Ac(a2-3)GalNAc
# How it was run: as §1
# [16] = molecular target: Neu5Ac(a2-3)GalNAc(b1-4)GlcNAc
# How it was run: as §1
# [17] = molecular target: Neu5Ac(a2-3)[GalNAc(b1-4)]Gal(b1-4)Glc
# How it was run: as §1
# [18] = molecular target: Neu5Ac(a2-3)[GalNAc(b1-4)]Gal(b1-4)GlcNAc
# How it was run: as §1
# [19] = molecular target: Neu5Ac(a2-3)[GalNAc(b1-4)]Gal(b1-4)GlcNAc(b1-3)GalNAc
# How it was run: as §1
# [20] = molecular target: Neu5Ac(a2-3)[Neu5Ac(a2-6)]GalNAc
# How it was run: as §1
# [21] = molecular target: Neu5Ac(a2-6)Gal
# How it was run: as §1
# [22] = molecular target: Neu5Ac(a2-6)Gal(b1-3)GlcNAc(b1-3)[Gal(b1-4)GlcNAc(b1-6)]Gal(b1-4)Glc
# How it was run: as §1
# [23] = molecular target: Neu5Ac(a2-6)Gal(b1-4)Glc
# How it was run: as §1
# [24] = molecular target: Neu5Ac(a2-6)Gal(b1-4)GlcNAc
# How it was run: as §1
# [25] = molecular target: Neu5Ac(a2-6)Gal(b1-4)GlcNAc(b1-2)Man
# How it was run: as §1
# [26] = molecular target: Neu5Ac(a2-6)Gal(b1-4)GlcNAc(b1-2)Man(a1-3)Man(b1-4)GlcNAc(b1-4)GlcNAc
# How it was run: as §1
# [27] = molecular target: Neu5Ac(a2-6)Gal(b1-4)GlcNAc(b1-2)Man(a1-3)[Gal(b1-4)GlcNAc(b1-2)Man(a1-6)]Man(b1-4)GlcNAc(b1-4)GlcNAc
# How it was run: as §1
# [28] = molecular target: Neu5Ac(a2-6)Gal(b1-4)GlcNAc(b1-2)Man(a1-3)[GlcNAc(b1-2)Man(a1-6)]Man(b1-4)GlcNAc(b1-4)GlcNAc
# How it was run: as §1
# [29] = molecular target: Neu5Ac(a2-6)Gal(b1-4)GlcNAc(b1-2)Man(a1-3)[GlcNAc(b1-4)][Neu5Ac(a2-6)Gal(b1-4)GlcNAc(b1-2)Man(a1-6)]Man(b1-4)GlcNAc(b1-4)GlcNAc
# How it was run: as §1
# [30] = molecular target: Neu5Ac(a2-6)Gal(b1-4)GlcNAc(b1-2)Man(a1-3)[Man(a1-6)]Man(b1-4)GlcNAc(b1-4)GlcNAc
# How it was run: as §1
# [31] = molecular target: Neu5Ac(a2-6)Gal(b1-4)GlcNAc(b1-2)Man(a1-3)[Neu5Ac(a2-3)Gal(b1-4)GlcNAc(b1-2)Man(a1-6)]Man(b1-4)GlcNAc(b1-4)GlcNAc
# How it was run: as §1
# [32] = molecular target: Neu5Ac(a2-6)Gal(b1-4)GlcNAc(b1-2)Man(a1-3)[Neu5Ac(a2-6)Gal(b1-4)GlcNAc(b1-2)Man(a1-6)]Man(b1-4)GlcNAc(b1-4)GlcNAc
# How it was run: as §1
# [33] = molecular target: Neu5Ac(a2-6)Gal(b1-4)GlcNAc(b1-2)Man(a1-3)[Neu5Ac(a2-6)Gal(b1-4)GlcNAc(b1-2)Man(a1-6)]Man(b1-4)GlcNAc(b1-4)[Fuc(a1-6)]GlcNAc
# How it was run: as §1
# [34] = molecular target: Neu5Ac(a2-6)Gal(b1-4)GlcNAc(b1-2)Man(a1-6)Man(b1-4)GlcNAc(b1-4)GlcNAc
# How it was run: as §1
# [35] = molecular target: Neu5Ac(a2-6)Gal(b1-4)GlcNAc(b1-2)Man(a1-6)[Gal(b1-4)GlcNAc(b1-2)Man(a1-3)]Man(b1-4)GlcNAc(b1-4)GlcNAc
# How it was run: as §1
# [36] = molecular target: Neu5Ac(a2-6)Gal(b1-4)GlcNAc(b1-2)Man(a1-6)[GlcNAc(b1-2)Man(a1-3)]Man(b1-4)GlcNAc(b1-4)GlcNAc
# How it was run: as §1
# [37] = molecular target: Neu5Ac(a2-6)Gal(b1-4)GlcNAc(b1-2)Man(a1-6)[Man(a1-3)]Man(b1-4)GlcNAc(b1-4)GlcNAc
# How it was run: as §1
# [38] = molecular target: Neu5Ac(a2-6)Gal(b1-4)GlcNAc(b1-2)[Neu5Ac(a2-6)Gal(b1-4)GlcNAc(b1-4)]Man(a1-3)[GlcNAc(b1-4)][Neu5Ac(a2-6)Gal(b1-4)GlcNAc(b1-2)[Neu5Ac(a2-6)Gal(b1-4)GlcNAc(b1-6)]Man(a1-6)]Man(b1-4)GlcNAc(b1-4)GlcNAc
# How it was run: as §1
# [39] = molecular target: Neu5Ac(a2-6)Gal(b1-4)GlcNAc(b1-2)[Neu5Ac(a2-6)Gal(b1-4)GlcNAc(b1-4)]Man(a1-3)[GlcNAc(b1-4)][Neu5Ac(a2-6)Gal(b1-4)GlcNAc(b1-4)Man(a1-6)]Man(b1-4)GlcNAc(b1-4)GlcNAc
# How it was run: as §1
# [40] = molecular target: Neu5Ac(a2-6)Gal(b1-4)GlcNAc(b1-2)[Neu5Ac(a2-6)Gal(b1-4)GlcNAc(b1-6)]Man(a1-6)[Neu5Ac(a2-6)Gal(b1-4)GlcNAc(b1-2)Man(a1-3)][GlcNAc(b1-4)]Man(b1-4)GlcNAc(b1-4)GlcNAc
# How it was run: as §1
# [41] = molecular target: Neu5Ac(a2-6)Gal(b1-4)GlcNAc(b1-3)Gal(b1-3)GlcNAc
# How it was run: as §1
# [42] = molecular target: Neu5Ac(a2-6)Gal(b1-4)GlcNAc(b1-3)Gal(b1-4)GlcNAc
# How it was run: as §1
# [43] = molecular target: Neu5Ac(a2-6)Gal(b1-4)GlcNAc(b1-3)Gal(b1-4)GlcNAc(b1-2)Man(a1-3)[Neu5Ac(a2-6)Gal(b1-4)GlcNAc(b1-3)Gal(b1-4)GlcNAc(b1-2)Man(a1-6)]GalNAc
# How it was run: as §1
# [44] = molecular target: Neu5Ac(a2-6)Gal(b1-4)GlcNAc(b1-3)Gal(b1-4)GlcNAc(b1-3)Gal(b1-4)GlcNAc
# How it was run: as §1
# [45] = molecular target: Neu5Ac(a2-6)Gal(b1-4)GlcNAc(b1-3)Gal(b1-4)GlcNAc(b1-3)Gal(b1-4)GlcNAc(b1-2)Man(a1-3)[Neu5Ac(a2-6)Gal(b1-4)GlcNAc(b1-3)Gal(b1-4)GlcNAc(b1-3)Gal(b1-4)GlcNAc(b1-2)Man(a1-6)]GalNAc
# How it was run: as §1
binder,measurement,setting,value
Epf (Streptococcus pyogenes) (protein) GDHGPEFNGVMVVKAAEAEELPDDLMNFKGTWEVSADGSSGRFFSKGATDSYVFHLIPAKDVKKPGWREHNEVKDSYIKIDKQSIAARYKTSTTAPYSVAFKVNTKSLIKDHDYKITFEQGQIASGITVDYRIGSAFNKTTDDSFKISDESKYASNVKIEGEEQGFKQREQGDKTISFRTLKEGPMSLVLLSKVEKKPQGDLDVEFKNLKIIDVTNPSQLDKGVAYVGNKNVQLTLKSDDGRTNFEGDEISLFNSRGELLQTVTVTKDQQNPISITLSEDQAKSLKNKEKLKVSIKQKQSKKTSKDFFFEVGIDPKVEAKQKEKLLELDKVKKQIEDSINGDAWLPEKPVDLQGDHGLSAWSHPQFEK,glycan array binding signal (z-score),[1],0.531
same,glycan array binding signal (z-score),[2],-0.626
same,glycan array binding signal (z-score),[3],0.198
same,glycan array binding signal (z-score),[4],-0.747
same,glycan array binding signal (z-score),[5],-1.48
same,glycan array binding signal (z-score),[6],-1.57
same,glycan array binding signal (z-score),[7],-0.491
same,glycan array binding signal (z-score),[8],-1.22
same,glycan array binding signal (z-score),[9],0.903
same,glycan array binding signal (z-score),[10],0.346
same,glycan array binding signal (z-score),[11],1.01
same,glycan array binding signal (z-score),[12],0.756
same,glycan array binding signal (z-score),[13],0.802
same,glycan array binding signal (z-score),[14],-0.292
same,glycan array binding signal (z-score),[15],0.334
same,glycan array binding signal (z-score),[16],-0.331
same,glycan array binding signal (z-score),[17],0.703
same,glycan array binding signal (z-score),[18],-0.493
same,glycan array binding signal (z-score),[19],-0.655
same,glycan array binding signal (z-score),[20],0.04
same,glycan array binding signal (z-score),[21],2.12
same,glycan array binding signal (z-score),[22],0.869
same,glycan array binding signal (z-score),[23],-1.71
same,glycan array binding signal (z-score),[24],0.195
same,glycan array binding signal (z-score),[25],-0.065
same,glycan array binding signal (z-score),[26],-0.6
same,glycan array binding signal (z-score),[27],0.283
same,glycan array binding signal (z-score),[28],-0.547
same,glycan array binding signal (z-score),[29],1.03
same,glycan array binding signal (z-score),[30],0.21
same,glycan array binding signal (z-score),[31],-1.54
same,glycan array binding signal (z-score),[32],-0.399
same,glycan array binding signal (z-score),[33],0.834
same,glycan array binding signal (z-score),[34],-1.46
same,glycan array binding signal (z-score),[35],0.814
same,glycan array binding signal (z-score),[36],2.14
same,glycan array binding signal (z-score),[37],-1.63
same,glycan array binding signal (z-score),[38],-0.662
same,glycan array binding signal (z-score),[39],0.157
same,glycan array binding signal (z-score),[40],0.109
same,glycan array binding signal (z-score),[41],0.278
same,glycan array binding signal (z-score),[42],-0.462
same,glycan array binding signal (z-score),[43],1.41
same,glycan array binding signal (z-score),[44],0.124
same,glycan array binding signal (z-score),[45],0.545

# 9 successive entries from above, quoted:
binder,measurement,setting,value
Epf (Streptococcus pyogenes) (protein) GDHGPEFNGVMVVKAAEAEELPDDLMNFKGTWEVSADGSSGRFFSKGATDSYVFHLIPAKDVKKPGWREHNEVKDSYIKIDKQSIAARYKTSTTAPYSVAFKVNTKSLIKDHDYKITFEQGQIASGITVDYRIGSAFNKTTDDSFKISDESKYASNVKIEGEEQGFKQREQGDKTISFRTLKEGPMSLVLLSKVEKKPQGDLDVEFKNLKIIDVTNPSQLDKGVAYVGNKNVQLTLKSDDGRTNFEGDEISLFNSRGELLQTVTVTKDQQNPISITLSEDQAKSLKNKEKLKVSIKQKQSKKTSKDFFFEVGIDPKVEAKQKEKLLELDKVKKQIEDSINGDAWLPEKPVDLQGDHGLSAWSHPQFEK,glycan array binding signal (z-score),[33],0.834
same,glycan array binding signal (z-score),[34],-1.46
same,glycan array binding signal (z-score),[35],0.814
same,glycan array binding signal (z-score),[36],2.14
same,glycan array binding signal (z-score),[37],-1.63
same,glycan array binding signal (z-score),[38],-0.662
same,glycan array binding signal (z-score),[39],0.157
same,glycan array binding signal (z-score),[40],0.109
same,glycan array binding signal (z-score),[41],0.278

# Reference: the supplement of paper PMC8728848
